Measured values reported in PubChem BioAssay AID493014 (National Center for Advancing Translational Sciences (NCATS), 2011).
This is one part of the list. Further columns of the screen follow, without active or inactive calls. The list favours compounds with an active or inconclusive main result. Words in brackets tell the shape of the fitted curve; partial curves, single points and poor fits give uncertain potencies.

Test: qHTS Assay to Find Inhibitors of Chronic Active B-Cell Receptor Signaling
Conditions: ABC-DLBCL IkBa-CBG/CBR reporter, luminescence ratio (green luciferase fused to IkBa over red control in TMD8 lymphoma cells), 4 h
Summary of the method: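 Compounds up to 46 uM were incubated four hours with TMD8 cells whose green CBG68 luciferase is fused to IkappaBalpha; red CBR luminescence normalised the signal, and concentration-effect curves were fitted to fusion, red and ratio data.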

[1] = measured here: CBR red luminescence, cell number
[2] = measured here: IkBa-CBG green luminescence

Row | SMILES | AC50 [1] | AC50 [2]
1 | Cc1ccc2cc3c(NC(=O)C4CCCO4)nn(CC(C)C)c3nc2c1 (centres undefined) | 29.1 µM [rising, single point] | 
2 | COc1cc(C2c3[nH]c4ccccc4c3CCN2Cc2cn(C)nc2C)ccc1F (centres undefined) | 22.4 µM [falling, partial curve] | 
3 | Cc1cc(CNC(=O)C2CCC(=O)N(Cc3ccccc3F)C2)nn1C (centres undefined) | 6.31 µM [rising, single point] | 
4 | COc1ccccc1-c1nnc(SC/C(O)=C(\C#N)c2nc3ccccc3[nH]2)n1C1CCCCC1 | 11.6 µM [falling, partial curve, poor fit] | 
5 | Cc1cc(N2CCC(C)CC2)nc2cccc(O)c12 | 9.2 µM [rising, partial curve, poor fit] | 
6 | COc1ccc(C(=O)NNC(=O)c2ccc3ccccc3n2)cc1 | 6.51 µM [rising, full curve, poor fit] | 20.6 µM [falling, single point]
7 | CN1CCN(CCCNC(=O)c2ccc3c(=O)n(CCc4ccccc4)c(=O)[nH]c3c2)CC1 | 35.5 µM [falling, single point] | 
8 | Cc1c(OCC(=O)NCc2ccncc2)ccc2c3c(c(=O)oc12)CCC3 | 0.794 µM [rising, full curve, poor fit] | 
9 | O=C(NNC1=Nc2ccccc2SC1)c1ccc(Cl)cc1 | 0.224 µM [rising, full curve, poor fit] | 
10 | O=C(CN1CCN(S(=O)(=O)N2CCOCC2)CC1)Nc1cc(Cl)ccc1Cl | 1 µM [rising, full curve] | 
11 | CCCCNc1c(-c2ccc(OC)c(SC3CCCCC3)c2)nc2cnccn12 | 20.6 µM [falling, partial curve] | 25.9 µM [rising, partial curve, poor fit]
12 | CCOC(=O)c1cnc(SC)nc1Sc1ccccc1 | 8.2 µM [rising, partial curve, poor fit] | 
13 | Cc1ccn2cc(CNC(=O)c3cccs3)nc2c1 | 6.51 µM [rising, single point] | 
14 | C/C(=C/C(=O)O)C(=O)Nc1cccc(C(F)(F)F)c1 | 20 µM [falling, partial curve, poor fit] | 
15 | O=C(CSc1nc2ccccc2s1)NNC(=O)Nc1ccc(Cl)c(Cl)c1 | 14.6 µM [falling, single point] | 
16 | CC1=C(C(=O)OCc2ccccc2)C(c2ccc(Cl)cc2)NC(=O)N1C (centres undefined) | 25.1 µM [falling, single point] | 
17 | Cc1ccc(CN(C)C(=O)c2ccc(S(=O)(=O)N3CCCCCC3)cc2)o1 | 29.1 µM [rising, partial curve, poor fit] | 
18 | Cn1c(-c2ccc(Br)o2)nc2ccccc21 | 35.5 µM [falling, single point] | 
19 | COc1ccc(C(=O)NN)cc1 | 6.31 µM [falling, partial curve] | 
20 | CCOc1ccccc1NC(=O)C(OC(=O)c1ccc(CC)cc1)c1ccccc1 (centres undefined) | 32.6 µM [rising, single point] | 
21 | COCc1nnc(NC(=O)CS(=O)(=O)Cc2ccccc2)s1 | 20.6 µM [rising, single point] | 
22 | C=CCSc1cc(C)nc2c(-c3ccccc3)cnn12 | 20 µM [falling, single point] | 

Row | SMILES | AC50 [1] | AC50 [2]
23 | COC(=O)c1ccc(NC(=O)c2cccc(N3C(=O)C4C5C=CC(C6CC56)C4C3=O)c2)cc1 (centres undefined) | 0.631 µM [falling, partial curve, poor fit] | 
24 | Cc1ccccc1NC(=O)c1ccc2c(c1)OCCO2 | 11.6 µM [falling, partial curve, poor fit] | 
25 | Cc1cccc(NN=C2c3ccccc3-c3ccccc32)c1 | 0.411 µM [rising, full curve] | 
26 | OCCC1CN(Cc2ccon2)CCN1Cc1ccc(F)c(F)c1 (centres undefined) | 12.6 µM [rising, partial curve, poor fit] | 
27 | NC(=O)C1CCN(C(=O)C2CCC(=O)N(CC3CCCCC3)C2)CC1 (centres undefined) | 5.01 µM [rising, single point] | 
28 | Cc1csc(NC(=O)c2cc(-c3ccco3)nc3ccccc23)n1 | 10.3 µM [falling, partial curve, poor fit] | 
29 | C/C=C/c1ccc(OCCSc2nc(C)cc(=O)[nH]2)c(OC)c1 | 3.98 µM [rising, partial curve, poor fit] | 
30 | CCOC(=O)c1sc(NNC(=O)c2ccc(F)cc2)nc1C | 28.2 µM [falling, single point] | 
31 | Fc1ccccc1CSc1nnnn1-c1ccc2c(c1)OCO2 | 9.2 µM [rising, partial curve, poor fit] | 
32 | COc1ccccc1N1CCN(C(=O)C(=O)c2c[nH]c3ccccc23)CC1 | 3.16 µM [falling, full curve] | 
33 | O=C1c2ccccc2C(=O)c2c(NCCCN(CCO)CCO)cccc21 | 35.5 µM [falling, single point] | 
34 | COc1ccc2c(c1)c(CC(=O)NCc1cc([N+](=O)[O-])ccc1O)c(C)n2C(=O)c1ccc(Cl)cc1 | 11.2 µM [falling, partial curve, poor fit] | 
35 | COc1ccc(CNC(=O)c2cc(-c3ccccc3OC)on2)cc1 | 22.4 µM [falling, partial curve, poor fit] | 
36 | COc1ccc(C(=O)/C=C/N(C)C)cc1OC | 10 µM [rising, partial curve, poor fit] | 
37 | C/C=C/c1ccc(Oc2nnnn2-c2ccc(C(N)=O)cc2)c(OC)c1 | 6.51 µM [falling, single point] | 6.51 µM [rising, partial curve, poor fit]
38 | Cn1c(Cl)c(C(=O)Nc2ccc(Cl)cc2)c2ccccc21 | 0.398 µM [rising, full curve] | 
39 | Cc1ccc(N(CC(=O)NCc2cccs2)S(=O)(=O)c2cccs2)cc1 | 29.1 µM [rising, single point] | 
40 | O=C1C2C3C=CC(C4CC34)C2C(=O)N1c1cc(Cl)ccn1 (centres undefined) | 14.1 µM [rising, partial curve, poor fit] | 
41 | CN(C)c1nc(N/N=C/c2ccccc2O)nc(Nc2ccc(F)cc2)n1 | 11.2 µM [falling, partial curve, poor fit] | 35.5 µM [falling, single point]
42 | S=c1nc(-c2ccccc2)c(-c2ccccc2)n[nH]1 | 3.98 µM [rising, single point] | 
43 | Cc1ccc(CN2CCN(/N=C/C=C/c3ccccc3[N+](=O)[O-])CC2)cc1 | 22.4 µM [falling, single point] | 
44 | Cc1cccc(CC(C)NC(=O)c2cc(COc3ccc(C)c(C)c3)on2)n1 (centres undefined) | 25.1 µM [falling, single point] | 

3 entries picked at random from the list so far, as already listed:
Row | SMILES | AC50 [1] | AC50 [2]
35 | COc1ccc(CNC(=O)c2cc(-c3ccccc3OC)on2)cc1 | 22.4 µM [falling, partial curve, poor fit] | 
36 | COc1ccc(C(=O)/C=C/N(C)C)cc1OC | 10 µM [rising, partial curve, poor fit] | 
34 | COc1ccc2c(c1)c(CC(=O)NCc1cc([N+](=O)[O-])ccc1O)c(C)n2C(=O)c1ccc(Cl)cc1 | 11.2 µM [falling, partial curve, poor fit] | 

Next records follow:

Row | SMILES | AC50 [1] | AC50 [2]
45 | COc1ccc2cc(C(C)C(=O)OC(C)C)ccc2c1 (centres undefined) | 5.8 µM [rising, full curve] | 
46 | Cc1nc(-c2ccc(C(=O)Nc3cccc(F)c3)cc2)cs1 | 8.91 µM [falling, partial curve] | 
47 | COc1ccc2oc(=O)c(C(=O)Nc3cccc(C)c3)cc2c1 | 0.1 µM [falling, full curve, poor fit] | 
48 | Cc1csc(NC(=O)/C=C/c2ccco2)n1 | 9.2 µM [falling, partial curve] | 
49 | O=C(COC(=O)c1ccc(-n2cnnn2)cc1)c1ccc(Br)cc1 | 18.4 µM [falling, partial curve, poor fit] | 
50 | C/C(CC(=O)NC1CCCCC1)=N\NC(=O)c1ccc(Br)cc1 | 11.2 µM [falling, partial curve] | 
51 | COCCn1c(=O)[nH]c2cc(C(=O)OC)ccc2c1=O | 0.316 µM [falling, full curve, poor fit] | 
52 | Fc1ccccc1NC(=S)N1CCN(Cc2ccccc2)CC1 | 18.4 µM [rising, partial curve, poor fit] | 
53 | CCCCN(C(=O)c1cc2c(s1)CCCC2)c1c(N)n(CCC)c(=O)[nH]c1=O | 29.1 µM [rising, single point] | 
54 | COC(=O)CCC(=O)c1oc2ccc(Br)cc2c1N | 1.03 µM [rising, full curve, poor fit] | 
55 | CCOc1ccc(/C=C/C2=CC(C)(C)NC(=S)N2)cc1 | 10 µM [falling, partial curve] | 
56 | CC(C)(C)c1ccc(C(=O)Nc2cccc(S(=O)(=O)NC3=NCCC3)c2)cc1 | 18.4 µM [falling, partial curve] | 
57 | Cc1ncc(CSCC(=O)Nc2cc(C(F)(F)F)ccc2Cl)c(CO)c1O | 0.447 µM [falling, full curve] | 
58 | COc1ccc2cc(C(=O)Nc3ccc(O)cc3)sc(=O)c2c1OC | 5.17 µM [falling, partial curve] | 
59 | Cc1cc(-c2ccccc2)n(-c2ccc(C(=O)N3CCN(c4ncccn4)CC3)cc2)n1 | 6.51 µM [rising, single point] | 4.11 µM [falling, single point]
60 | O=C(Nc1cccc(Cl)c1)c1ccc2c(=O)n3c(nc2c1)CCCCC3 | 0.708 µM [rising, partial curve] | 
61 | Nc1nc(N)nc(-c2ccccc2)n1 | 18.4 µM [falling, single point] | 
62 | Cc1nonc1C(=O)N/N=C/c1cccc(O)c1 | 18.4 µM [falling, single point] | 
63 | O=S(=O)(NCC1CCCO1)c1ccc(S(=O)(=O)N2CCc3ccccc3C2)cc1 (centres undefined) | 10.3 µM [rising, partial curve, poor fit] | 
64 | CCC(C)N(C(=O)COC(=O)/C=C/c1ccc(O)c(OC)c1)C1CCS(=O)(=O)C1 (centres undefined) | 29.1 µM [falling, partial curve, poor fit] | 
